Measurements as given in the supplement of paper PMC3334620.
The full ranking holds about 33,000 sequences; the median of “E-score (-0.5 to 0.5)” is about -8e-05, and the highest 2% start at about 0.23. The list shows a part of the results.

What follows are sequences tested against T1, Nrg2 (UniProt P38082) (assay: PBM E-score (8-mer binding enrichment) (E-score (-0.5 to 0.5)); higher = stronger / more preferred TF binding). Settings: protein concentration: 100 nM; construct: GST-full length.
T1 sequence: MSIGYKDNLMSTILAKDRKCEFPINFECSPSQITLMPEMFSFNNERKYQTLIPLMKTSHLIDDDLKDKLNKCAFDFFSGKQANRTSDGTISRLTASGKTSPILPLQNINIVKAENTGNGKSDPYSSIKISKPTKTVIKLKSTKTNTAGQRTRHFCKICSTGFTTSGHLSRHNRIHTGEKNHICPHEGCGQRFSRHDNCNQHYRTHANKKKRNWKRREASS
Outline: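 Detection of bound protein used fluorescent anti-GST, with scans normalised by masliner. The proteins were GST-tagged yeast transcription factors applied at about 100-200 nM to universal all-10-mer Agilent arrays made double-stranded by primer extension. Each ungapped eight-base word, pooled with its reverse complement, was scored with an E-score from the Universal PBM Analysis Suite.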
In the case of TCGTACGA, the “PBM E-score” value is reported as -0.101.
For GCATGGCC, the “PBM E-score” value was -0.0308.
AACCACGG was tested, and the “PBM E-score” value was -0.0501.
In the case of ATATAATC, the “PBM E-score” value is reported as 0.0816.
In the case of CCCAGCGG, the “PBM E-score” value is reported as -0.211.
ATTGGGCC was tested, and the “PBM E-score” value was 0.163.
For CGGCATTA, the “PBM E-score” value was 0.0976.
In the case of TATATGCA, the “PBM E-score” value is reported as -0.0847.
In the case of CGCCAGCA, the “PBM E-score” value is reported as -0.218.
With GTAGTAGA the “PBM E-score” value was -0.0835.
CAACAACA was tested, and the “PBM E-score” value was 0.127.
GCTGGCGA was tested, and the “PBM E-score” value was -0.132.
For CAGTGGAC, the “PBM E-score” value was -0.00742.
In the case of CGGAGCAG, the “PBM E-score” value is reported as -0.109.
For ATGCCTCA, the “PBM E-score” value was -0.00156.
In the case of AGTACGAA, the “PBM E-score” value is reported as 0.144.
In the case of TAGTCGAA, the “PBM E-score” value is reported as 0.0805.
With CTACATAC the “PBM E-score” value was 0.0503.
In the case of CGGCGAGA, the “PBM E-score” value is reported as 0.0721.
In the case of ATGCCACC, the “PBM E-score” value is reported as -0.0621.
For ATTATAGC, the “PBM E-score” value was 0.0701.
AATGCCAG was tested, and the “PBM E-score” value was 0.041.
CCTGCATC was tested, and the “PBM E-score” value was -0.0151.
ATGCGTAG was tested, and the “PBM E-score” value was -0.112.
For ACGATACT, the “PBM E-score” value was -0.0629.
In the case of GTCGTTCA, the “PBM E-score” value is reported as -0.158.
CTACGGCA was tested, and the “PBM E-score” value was -0.0192.
For GATTTAAC, the “PBM E-score” value was 0.0302.
With CCGGCCAA the “PBM E-score” value was -0.0829.
CTGTGTTA was tested, and the “PBM E-score” value was 0.0396.
In the case of GGTTTCTA, the “PBM E-score” value is reported as 0.0672.
For ATTATCCA, the “PBM E-score” value was 0.189.
In the case of TCTCATCA, the “PBM E-score” value is reported as 0.131.
CTGTAGGC was tested, and the “PBM E-score” value was -0.109.
GGCTCTGA was tested, and the “PBM E-score” value was -0.106.
With GTGGGGCA the “PBM E-score” value was -0.0184.
For ATCACTTA, the “PBM E-score” value was -0.137.
ATTAATCG was tested, and the “PBM E-score” value was 0.222.
GGTGTAAA was tested, and the “PBM E-score” value was -0.0134.
In the case of CTACACTA, the “PBM E-score” value is reported as -0.0831.
CTTACTTA was tested, and the “PBM E-score” value was 0.0313.
For CACGTTAC, the “PBM E-score” value was -0.206.
With AACCAACC the “PBM E-score” value was -0.105.
With ACAGGTCG the “PBM E-score” value was -0.00986.
ATAGTTAC was tested, and the “PBM E-score” value was -0.0575.
In the case of AATTGTGG, the “PBM E-score” value is reported as 0.0167.
In the case of CGCGAGCG, the “PBM E-score” value is reported as -0.00561.
With ATGAGAAT the “PBM E-score” value was 0.152.
ATATACCC was tested, and the “PBM E-score” value was 0.0613.
With AGGTCTGG the “PBM E-score” value was -0.204.
For AAGACACT, the “PBM E-score” value was 0.127.
For AGTTCTTA, the “PBM E-score” value was 0.0811.
In the case of CGCACGAG, the “PBM E-score” value is reported as -0.0371.
With CTATACAG the “PBM E-score” value was -0.0337.
CACTGCTC was tested, and the “PBM E-score” value was -0.019.
CGGTGCGC was tested, and the “PBM E-score” value was -0.0228.
With GGTTATAC the “PBM E-score” value was -0.0785.
With CACGTCTA the “PBM E-score” value was -0.0411.
AATCTTTC was tested, and the “PBM E-score” value was 0.0868.
In the case of AATCCGTA, the “PBM E-score” value is reported as -0.0501.
With GCACCCTA the “PBM E-score” value was 0.105.
For AATCACTG, the “PBM E-score” value was 0.203.
With GTATGAAC the “PBM E-score” value was 0.0727.
For ATACACTG, the “PBM E-score” value was 0.117.
GCTGGGAC was tested, and the “PBM E-score” value was -0.147.
In the case of ACACTCGG, the “PBM E-score” value is reported as 0.0287.
GACATACC was tested, and the “PBM E-score” value was 0.0381.
In the case of AGAAAGCT, the “PBM E-score” value is reported as 0.0283.
For CTGGATGA, the “PBM E-score” value was 0.0113.
With GGGACTGA the “PBM E-score” value was -0.15.
In the case of CCGCTAGA, the “PBM E-score” value is reported as -0.194.
With AGAAGGTG the “PBM E-score” value was -0.00485.
With GGGGTAAA the “PBM E-score” value was 0.02.
AGTAGGAG was tested, and the “PBM E-score” value was -0.128.
In the case of AGATCGCA, the “PBM E-score” value is reported as 0.0389.
With AACAGTCC the “PBM E-score” value was -0.149.
With GGCGGGCA the “PBM E-score” value was -0.0772.
In the case of ACGGACCT, the “PBM E-score” value is reported as 0.17.
AGGAAGCG was tested, and the “PBM E-score” value was -0.0453.
With CGCCGACC the “PBM E-score” value was -0.0861.
With CCGCACCC the “PBM E-score” value was 0.0906.
In the case of ACGCCCAG, the “PBM E-score” value is reported as -0.12.
CGAAGAGA was tested, and the “PBM E-score” value was -0.0105.
With AGGCATCA the “PBM E-score” value was -0.226.
For TCAGATAA, the “PBM E-score” value was 0.142.
In the case of GAACTGGC, the “PBM E-score” value is reported as -0.122.
In the case of ACTACGCG, the “PBM E-score” value is reported as -0.0292.
AGAAGAGC was tested, and the “PBM E-score” value was -0.187.
With CCGAATCG the “PBM E-score” value was -0.1.
With AGACCACA the “PBM E-score” value was -0.152.
For AAACGTCG, the “PBM E-score” value was -0.045.
AATTATGT was tested, and the “PBM E-score” value was 0.0874.
With AGAGACGA the “PBM E-score” value was -0.0478.
For ACCGTTCC, the “PBM E-score” value was 0.0793.
With CCGTGAGC the “PBM E-score” value was -0.305.
CACCAGTA was tested, and the “PBM E-score” value was -0.0531.
GCAGTGGC was tested, and the “PBM E-score” value was -0.173.
For ATAGGGGC, the “PBM E-score” value was 0.0959.
In the case of CAGTATGG, the “PBM E-score” value is reported as 0.0291.
For TCAACCGA, the “PBM E-score” value was 0.163.
CATTACAA was tested, and the “PBM E-score” value was 0.0993.
AAACTGGA was tested, and the “PBM E-score” value was 0.0999.
With AAACATAT the “PBM E-score” value was 0.197.
With CCACAGTC the “PBM E-score” value was -0.276.
CAGCGTAA was tested, and the “PBM E-score” value was -0.0376.
In the case of CGATCGTC, the “PBM E-score” value is reported as 0.0719.
For AAGTGCCA, the “PBM E-score” value was -0.0263.
For GGATGCAA, the “PBM E-score” value was -0.105.
CGAAAAAC was tested, and the “PBM E-score” value was 0.0099.
GTTGTGGA was tested, and the “PBM E-score” value was 0.0936.
For CCCGTCCC, the “PBM E-score” value was -0.143.
In the case of CAAGGCTC, the “PBM E-score” value is reported as -0.208.
In the case of GTAACTGA, the “PBM E-score” value is reported as -0.0774.
In the case of CGAGCATA, the “PBM E-score” value is reported as -0.0765.
With GACCTAAA the “PBM E-score” value was 0.0439.
AGGTAGGA was tested, and the “PBM E-score” value was -0.19.
For ACACGATA, the “PBM E-score” value was -0.0296.
For GAAAGCAA, the “PBM E-score” value was 0.18.
With TGGTCCAA the “PBM E-score” value was -0.112.
With CTAGGGAG the “PBM E-score” value was -0.22.
With CTAGAACA the “PBM E-score” value was 0.0487.
CCGTAAGA was tested, and the “PBM E-score” value was -0.122.
With ACCTTAGC the “PBM E-score” value was 0.025.
For GGGCCCCC, the “PBM E-score” value was -0.279.
In the case of AACCCCGA, the “PBM E-score” value is reported as 0.0604.
In the case of TGAGCGAA, the “PBM E-score” value is reported as 0.177.
With AGGGTCAT the “PBM E-score” value was 0.132.
For AGCGTACG, the “PBM E-score” value was -0.129.
With GTGTAGTA the “PBM E-score” value was -0.0167.
In the case of CTGGCTGA, the “PBM E-score” value is reported as -0.0182.
AACGTCGT was tested, and the “PBM E-score” value was -0.066.
In the case of AGTCGCAA, the “PBM E-score” value is reported as 0.0495.
ATTAATAG was tested, and the “PBM E-score” value was 0.226.
For AAGGCCCT, the “PBM E-score” value was 0.187.
CCCACCAA was tested, and the “PBM E-score” value was 0.0517.
For CTCAAAGC, the “PBM E-score” value was 0.0269.
In the case of AATCGGTA, the “PBM E-score” value is reported as -0.0396.
For AGTTGGAA, the “PBM E-score” value was -0.0362.
In the case of CATTCGCA, the “PBM E-score” value is reported as -0.0034.
With GAATGTGA the “PBM E-score” value was -0.0219.
In the case of TCACCTAA, the “PBM E-score” value is reported as -0.0162.
GAGAGCTC was tested, and the “PBM E-score” value was -0.108.
In the case of CTCCACTA, the “PBM E-score” value is reported as 0.0636.
For AATCGCGT, the “PBM E-score” value was 0.186.
AGATCCAG was tested, and the “PBM E-score” value was 0.168.
For ATCAGTTC, the “PBM E-score” value was -0.0751.
In the case of GCCTTGAC, the “PBM E-score” value is reported as -0.122.
With AAGTAACA the “PBM E-score” value was 0.191.
For AAAAAGGT, the “PBM E-score” value was 0.0514.
ACTACGAG was tested, and the “PBM E-score” value was -0.0332.
CCTGCTCA was tested, and the “PBM E-score” value was 0.0671.
CCGCTGAA was tested, and the “PBM E-score” value was 0.0746.
ATTGAAGC was tested, and the “PBM E-score” value was -0.0755.
With TATTTGAA the “PBM E-score” value was 0.0187.
With CCAACACA the “PBM E-score” value was 0.134.
AATCGCAT was tested, and the “PBM E-score” value was 0.245.
AAGGTCTA was tested, and the “PBM E-score” value was -0.111.
In the case of CTTAGACA, the “PBM E-score” value is reported as -0.108.
With ACTCATAC the “PBM E-score” value was 0.0469.
For CCAGCGGC, the “PBM E-score” value was -0.0283.
For CTAGTAGC, the “PBM E-score” value was -0.0886.
GCCCAGAA was tested, and the “PBM E-score” value was 0.0139.
With CCTTAGCG the “PBM E-score” value was -0.131.
With CGGTGACG the “PBM E-score” value was -0.00929.
For GCGCGCAC, the “PBM E-score” value was 0.165.
For CTCATCTC, the “PBM E-score” value was 0.207.
ATAACTAT was tested, and the “PBM E-score” value was -0.013.
TACTAATA was tested, and the “PBM E-score” value was 0.0648.
In the case of GGCATGAC, the “PBM E-score” value is reported as -0.106.
CGCCTCAA was tested, and the “PBM E-score” value was -0.0538.
For AATCCGGA, the “PBM E-score” value was 0.164.
With AATGCGTG the “PBM E-score” value was -0.0113.
